From the supplement of paper PMC10849652
This is one part of the list.

Chains of the proteins cited; added tags and fusions are not shown. Lines headed by an entry give the natural chain unless they say otherwise; changes in a name come on top.
UniProt P54802: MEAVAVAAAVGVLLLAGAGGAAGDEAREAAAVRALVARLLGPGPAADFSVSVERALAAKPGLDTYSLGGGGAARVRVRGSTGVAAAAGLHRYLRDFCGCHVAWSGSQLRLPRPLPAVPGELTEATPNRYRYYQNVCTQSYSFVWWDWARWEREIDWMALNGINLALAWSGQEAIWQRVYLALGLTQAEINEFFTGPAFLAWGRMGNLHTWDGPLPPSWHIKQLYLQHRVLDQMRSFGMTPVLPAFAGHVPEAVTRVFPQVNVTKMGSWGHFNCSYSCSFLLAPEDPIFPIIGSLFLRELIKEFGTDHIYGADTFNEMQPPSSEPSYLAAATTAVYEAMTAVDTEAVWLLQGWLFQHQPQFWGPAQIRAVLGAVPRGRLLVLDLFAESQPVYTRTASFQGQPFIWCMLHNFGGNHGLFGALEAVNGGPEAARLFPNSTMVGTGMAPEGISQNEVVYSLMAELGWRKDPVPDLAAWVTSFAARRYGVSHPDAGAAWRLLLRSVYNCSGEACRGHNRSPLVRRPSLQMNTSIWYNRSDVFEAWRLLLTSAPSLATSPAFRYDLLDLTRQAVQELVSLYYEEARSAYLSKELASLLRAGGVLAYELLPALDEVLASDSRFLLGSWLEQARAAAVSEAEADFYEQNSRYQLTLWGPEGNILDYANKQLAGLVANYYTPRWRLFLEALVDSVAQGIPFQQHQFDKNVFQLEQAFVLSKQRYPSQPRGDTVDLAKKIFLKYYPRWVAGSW
UniProt Q6PIU2: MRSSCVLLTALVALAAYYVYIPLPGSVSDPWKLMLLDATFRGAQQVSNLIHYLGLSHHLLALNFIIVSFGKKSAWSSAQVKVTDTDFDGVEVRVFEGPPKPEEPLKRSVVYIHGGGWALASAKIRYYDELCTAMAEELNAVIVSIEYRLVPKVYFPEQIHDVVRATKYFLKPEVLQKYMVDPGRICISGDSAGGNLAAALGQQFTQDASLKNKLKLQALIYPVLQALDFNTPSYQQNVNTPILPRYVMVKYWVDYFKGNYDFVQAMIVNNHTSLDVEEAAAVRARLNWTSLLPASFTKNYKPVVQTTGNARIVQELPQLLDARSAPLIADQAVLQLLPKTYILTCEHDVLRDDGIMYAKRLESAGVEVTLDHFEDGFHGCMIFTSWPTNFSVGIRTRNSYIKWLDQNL
UniProt Q9UJ70, whole entry, looked up: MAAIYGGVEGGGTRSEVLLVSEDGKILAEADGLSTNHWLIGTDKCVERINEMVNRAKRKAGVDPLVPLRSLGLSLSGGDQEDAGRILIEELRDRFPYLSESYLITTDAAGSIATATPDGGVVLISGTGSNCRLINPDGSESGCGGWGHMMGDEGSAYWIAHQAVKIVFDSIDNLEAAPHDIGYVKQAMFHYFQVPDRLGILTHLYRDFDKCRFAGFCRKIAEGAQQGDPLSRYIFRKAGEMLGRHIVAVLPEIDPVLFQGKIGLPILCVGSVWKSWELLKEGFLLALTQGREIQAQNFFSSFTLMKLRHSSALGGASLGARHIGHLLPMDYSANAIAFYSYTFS
UniProt Q69YL0: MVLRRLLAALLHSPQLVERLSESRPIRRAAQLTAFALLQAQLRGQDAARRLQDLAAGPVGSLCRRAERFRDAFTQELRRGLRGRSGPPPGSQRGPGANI
UniProt P53602: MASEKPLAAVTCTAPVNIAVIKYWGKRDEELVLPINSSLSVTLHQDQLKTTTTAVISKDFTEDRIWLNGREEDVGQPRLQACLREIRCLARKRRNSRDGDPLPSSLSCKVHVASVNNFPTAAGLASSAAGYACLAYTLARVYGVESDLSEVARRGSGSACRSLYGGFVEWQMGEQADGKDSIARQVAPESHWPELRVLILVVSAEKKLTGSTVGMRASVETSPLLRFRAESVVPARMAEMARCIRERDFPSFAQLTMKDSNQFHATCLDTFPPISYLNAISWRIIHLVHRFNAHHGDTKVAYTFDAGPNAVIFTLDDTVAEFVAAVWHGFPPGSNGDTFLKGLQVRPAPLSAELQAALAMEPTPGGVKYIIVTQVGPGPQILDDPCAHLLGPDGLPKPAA
UniProt Q9BQ15: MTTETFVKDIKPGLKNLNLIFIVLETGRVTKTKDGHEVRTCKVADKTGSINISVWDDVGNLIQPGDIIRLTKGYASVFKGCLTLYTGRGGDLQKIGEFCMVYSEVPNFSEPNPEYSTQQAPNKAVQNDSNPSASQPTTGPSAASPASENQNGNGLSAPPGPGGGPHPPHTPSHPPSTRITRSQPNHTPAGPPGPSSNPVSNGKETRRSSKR
UniProt Q99733: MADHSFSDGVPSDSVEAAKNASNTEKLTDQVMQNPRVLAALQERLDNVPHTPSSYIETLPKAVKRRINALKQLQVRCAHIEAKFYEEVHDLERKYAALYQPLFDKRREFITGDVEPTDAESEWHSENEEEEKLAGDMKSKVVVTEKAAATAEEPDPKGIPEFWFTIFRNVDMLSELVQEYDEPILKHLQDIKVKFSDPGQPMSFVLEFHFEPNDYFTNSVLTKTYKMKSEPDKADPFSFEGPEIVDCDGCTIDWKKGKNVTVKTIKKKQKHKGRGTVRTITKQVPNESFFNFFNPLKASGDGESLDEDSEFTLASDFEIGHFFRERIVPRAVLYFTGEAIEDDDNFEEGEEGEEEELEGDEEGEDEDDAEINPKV
UniProt O94832: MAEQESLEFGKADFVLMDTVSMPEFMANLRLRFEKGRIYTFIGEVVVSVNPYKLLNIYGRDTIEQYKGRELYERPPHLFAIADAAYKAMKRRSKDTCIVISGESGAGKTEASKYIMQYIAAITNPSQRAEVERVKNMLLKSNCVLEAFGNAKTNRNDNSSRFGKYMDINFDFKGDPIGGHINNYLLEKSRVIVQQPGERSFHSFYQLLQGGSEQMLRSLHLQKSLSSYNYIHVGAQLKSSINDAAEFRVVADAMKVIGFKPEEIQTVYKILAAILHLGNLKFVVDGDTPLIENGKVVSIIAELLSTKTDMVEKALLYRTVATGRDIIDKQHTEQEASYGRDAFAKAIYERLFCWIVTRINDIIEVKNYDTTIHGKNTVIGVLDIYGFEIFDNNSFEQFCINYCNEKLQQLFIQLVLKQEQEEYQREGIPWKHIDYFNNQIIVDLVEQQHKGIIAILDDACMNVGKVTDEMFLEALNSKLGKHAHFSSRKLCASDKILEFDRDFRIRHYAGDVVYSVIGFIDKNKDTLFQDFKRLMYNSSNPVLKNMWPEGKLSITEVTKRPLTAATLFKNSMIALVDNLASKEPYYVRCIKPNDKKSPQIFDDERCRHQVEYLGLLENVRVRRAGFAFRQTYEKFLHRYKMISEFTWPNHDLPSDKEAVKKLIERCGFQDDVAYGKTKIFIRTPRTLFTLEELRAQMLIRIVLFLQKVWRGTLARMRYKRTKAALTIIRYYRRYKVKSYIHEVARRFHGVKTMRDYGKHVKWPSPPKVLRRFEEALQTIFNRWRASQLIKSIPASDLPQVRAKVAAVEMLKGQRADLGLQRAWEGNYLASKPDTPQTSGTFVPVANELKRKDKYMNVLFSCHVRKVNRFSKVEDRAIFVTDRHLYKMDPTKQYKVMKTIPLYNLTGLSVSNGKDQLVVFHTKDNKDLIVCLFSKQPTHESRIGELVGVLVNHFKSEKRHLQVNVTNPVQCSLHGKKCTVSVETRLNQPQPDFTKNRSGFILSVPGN
UniProt Q96NT1: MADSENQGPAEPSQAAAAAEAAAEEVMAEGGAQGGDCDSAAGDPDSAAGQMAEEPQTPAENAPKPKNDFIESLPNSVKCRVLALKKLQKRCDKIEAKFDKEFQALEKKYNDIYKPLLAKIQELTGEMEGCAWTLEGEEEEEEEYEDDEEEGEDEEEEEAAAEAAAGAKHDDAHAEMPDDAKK
UniProt Q6ZNJ1: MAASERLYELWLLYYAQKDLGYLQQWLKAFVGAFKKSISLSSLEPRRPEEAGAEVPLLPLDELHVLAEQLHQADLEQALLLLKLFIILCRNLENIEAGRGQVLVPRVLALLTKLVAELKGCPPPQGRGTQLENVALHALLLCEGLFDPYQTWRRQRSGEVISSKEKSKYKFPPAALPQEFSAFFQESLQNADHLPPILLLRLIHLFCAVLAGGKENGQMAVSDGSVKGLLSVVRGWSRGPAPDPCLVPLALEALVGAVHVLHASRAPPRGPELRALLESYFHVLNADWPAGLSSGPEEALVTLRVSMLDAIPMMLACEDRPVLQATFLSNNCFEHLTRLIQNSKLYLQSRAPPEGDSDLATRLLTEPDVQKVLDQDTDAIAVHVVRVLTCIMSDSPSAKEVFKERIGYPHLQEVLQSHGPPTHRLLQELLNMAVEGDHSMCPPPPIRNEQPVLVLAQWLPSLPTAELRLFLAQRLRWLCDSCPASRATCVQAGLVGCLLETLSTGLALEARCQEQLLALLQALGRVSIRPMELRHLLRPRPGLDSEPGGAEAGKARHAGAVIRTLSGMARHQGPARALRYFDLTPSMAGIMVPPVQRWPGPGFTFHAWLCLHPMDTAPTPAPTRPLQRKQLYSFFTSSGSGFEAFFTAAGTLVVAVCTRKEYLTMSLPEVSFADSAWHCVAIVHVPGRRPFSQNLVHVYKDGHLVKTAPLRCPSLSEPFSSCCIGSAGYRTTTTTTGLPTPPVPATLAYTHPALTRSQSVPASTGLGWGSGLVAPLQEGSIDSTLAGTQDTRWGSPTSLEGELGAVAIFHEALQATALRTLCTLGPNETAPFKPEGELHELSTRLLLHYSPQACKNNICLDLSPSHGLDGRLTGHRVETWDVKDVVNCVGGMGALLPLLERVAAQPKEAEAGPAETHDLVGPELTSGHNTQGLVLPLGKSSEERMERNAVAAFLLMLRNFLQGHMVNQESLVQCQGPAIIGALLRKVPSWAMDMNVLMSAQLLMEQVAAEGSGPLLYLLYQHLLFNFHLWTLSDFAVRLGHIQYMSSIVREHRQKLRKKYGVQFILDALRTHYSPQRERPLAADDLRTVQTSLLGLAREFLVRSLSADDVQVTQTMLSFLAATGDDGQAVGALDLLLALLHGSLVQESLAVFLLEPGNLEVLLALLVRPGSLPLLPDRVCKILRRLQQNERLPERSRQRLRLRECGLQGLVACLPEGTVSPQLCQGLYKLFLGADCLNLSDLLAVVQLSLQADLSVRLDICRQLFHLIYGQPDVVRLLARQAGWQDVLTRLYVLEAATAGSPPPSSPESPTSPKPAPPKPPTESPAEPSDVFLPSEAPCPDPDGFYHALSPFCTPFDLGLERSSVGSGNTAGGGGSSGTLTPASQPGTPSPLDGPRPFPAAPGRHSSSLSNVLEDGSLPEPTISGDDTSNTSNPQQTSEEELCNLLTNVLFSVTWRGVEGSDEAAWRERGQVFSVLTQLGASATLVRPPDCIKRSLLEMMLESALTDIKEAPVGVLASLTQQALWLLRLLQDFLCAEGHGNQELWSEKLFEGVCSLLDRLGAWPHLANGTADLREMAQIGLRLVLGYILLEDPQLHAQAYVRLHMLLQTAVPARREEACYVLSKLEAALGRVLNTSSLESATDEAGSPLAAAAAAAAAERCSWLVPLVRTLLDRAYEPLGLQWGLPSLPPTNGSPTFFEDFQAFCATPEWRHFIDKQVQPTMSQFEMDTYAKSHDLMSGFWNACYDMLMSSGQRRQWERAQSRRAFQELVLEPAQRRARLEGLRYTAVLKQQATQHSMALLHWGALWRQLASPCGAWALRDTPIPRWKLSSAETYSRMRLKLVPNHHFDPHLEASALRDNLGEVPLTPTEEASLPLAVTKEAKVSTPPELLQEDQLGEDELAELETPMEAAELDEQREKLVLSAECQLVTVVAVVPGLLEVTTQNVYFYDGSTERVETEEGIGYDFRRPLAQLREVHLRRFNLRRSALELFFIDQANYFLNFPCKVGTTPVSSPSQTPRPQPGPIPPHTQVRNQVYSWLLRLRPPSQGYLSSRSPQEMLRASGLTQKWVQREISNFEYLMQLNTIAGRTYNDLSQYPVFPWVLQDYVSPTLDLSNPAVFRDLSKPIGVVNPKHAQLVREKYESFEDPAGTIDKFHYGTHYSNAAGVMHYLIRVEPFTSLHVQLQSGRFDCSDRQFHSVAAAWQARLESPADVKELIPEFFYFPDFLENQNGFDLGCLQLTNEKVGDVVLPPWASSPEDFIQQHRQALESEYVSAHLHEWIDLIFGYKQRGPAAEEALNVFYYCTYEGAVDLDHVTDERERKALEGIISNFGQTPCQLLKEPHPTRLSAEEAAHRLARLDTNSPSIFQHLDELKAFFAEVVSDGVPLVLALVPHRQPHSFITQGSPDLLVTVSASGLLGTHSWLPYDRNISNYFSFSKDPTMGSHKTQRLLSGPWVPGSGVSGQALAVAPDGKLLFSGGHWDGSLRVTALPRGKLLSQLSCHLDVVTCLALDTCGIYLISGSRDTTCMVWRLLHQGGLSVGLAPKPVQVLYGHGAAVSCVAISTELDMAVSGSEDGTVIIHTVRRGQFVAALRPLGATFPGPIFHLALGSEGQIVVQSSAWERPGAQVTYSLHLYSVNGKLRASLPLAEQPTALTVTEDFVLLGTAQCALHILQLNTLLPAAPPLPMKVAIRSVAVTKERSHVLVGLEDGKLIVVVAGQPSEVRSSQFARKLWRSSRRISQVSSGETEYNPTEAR

Assays:
Assay in all cases: log2 fold change, soluble protein after heating vs DMSO (PISA); higher = thermal stabilisation; K562 lysate, 10 uM; active = over 0.2 and 3.5 SD of the protein, either way, in both replicates (recomputed)
vemurafenib = compound: CCCS(=O)(=O)Nc1ccc(F)c(C(=O)c2c[nH]c3ncc(-c4ccc(Cl)cc4)cc23)c1F [vemurafenib]
How it was run: (§1)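 Soluble protein was defined as the supernatant remaining after 21,000xg for 90 min, following pooling of heated aliquots and adjustment to 0.5% NP-40 at 4°C. Before that, crude K562 extract at 1 mg/mL protein in PBS pH 7.4 with 1 mM MgCl2 was treated with 10 μM compound for 30 min and heated for 3 min across 48°C-58°C. Quantification used TMTpro 16plex LC-MS/MS with channel sums equalised, and values are log-two fold changes in thermal stability relative to solvent controls from duplicates.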

[1] = compound: CCCS(=O)(=O)Nc1ccc(F)c(C(=O)c2c[nH]c3ncc(Cl)cc23)c1F
How it was run: as §1

barasertib = compound: CCN(CCCOc1ccc2c(Nc3cc(CC(=O)Nc4cccc(F)c4)[nH]n3)ncnc2c1)CCOP(=O)(O)O [barasertib]
How it was run: as §1

[2] = compound: CC[C@@H]1C(=O)N(C)c2cnc(Nc3ccc(C(=O)NC4CCN(C)CC4)cc3OC)nc2N1C1CCCC1
How it was run: as §1

volasertib = compound: CC[C@@H]1C(=O)N(C)c2cnc(Nc3ccc(C(=O)N[C@H]4CC[C@H](N5CCN(CC6CC6)CC5)CC4)cc3OC)nc2N1C(C)C [volasertib]
How it was run: as §1

[3] = compound: CCn1c(C(=O)N(C2CC2)C2CC2)cc2c3c(ncn3C)c(Nc3cc(C)n(C)n3)nc21
How it was run: as §1

[4] = compound: CCn1cc(-c2ccnc3[nH]c(-c4cccc(CN(C)C)c4)cc23)c(-c2ccc(NC(=O)N(C)C)cc2)n1
How it was run: as §1

[5] = compound: CN1CCC(CNc2ccc3ncc(-c4cccc(OC(F)(F)F)c4)n3n2)CC1
How it was run: as §1

saracatinib = compound: CN1CCN(CCOc2cc(OC3CCOCC3)c3c(Nc4c(Cl)ccc5c4OCO5)ncnc3c2)CC1 [saracatinib]
How it was run: as §1

sotrastaurin = compound: CN1CCN(c2nc(C3=C(c4c[nH]c5ccccc45)C(=O)NC3=O)c3ccccc3n2)CC1 [sotrastaurin]
How it was run: as §1

alvocidib = compound: CN1CC[C@H](c2c(O)cc(O)c3c(=O)cc(-c4ccccc4Cl)oc23)[C@H](O)C1 [alvocidib]
How it was run: as §1

Tubastatin A = compound: CN1CCc2c(c3ccccc3n2Cc2ccc(C(=O)NO)cc2)C1 [Tubastatin A]
How it was run: as §1

[6] = compound: CNC(=O)C1=CC=CC=C1NC2=NC(=NC=C2Cl)NC3=C(C=C(C=C3)N4CCOCC4)OC
How it was run: as §1

defactinib = compound: CNC(=O)c1ccc(Nc2ncc(C(F)(F)F)c(NCc3nccnc3N(C)S(C)(=O)=O)n2)cc1 [defactinib]
How it was run: as §1

[7] = compound: CNc1nc(-c2ccc3c(N)n[nH]c3c2)cc(N2C[C@@H](C(=O)NC3CCCCC3)CC[C@H]2C)n1
How it was run: as §1

encorafenib = compound: COC(=O)N[C@@H](C)CNc1nccc(-c2cn(C(C)C)nc2-c2cc(Cl)cc(NS(C)(=O)=O)c2F)n1 [encorafenib]
How it was run: as §1

[8] = compound: COC(=O)[C@H](CCSC)NC(=O)C1=C(C=C(C=C1)NC[C@H](CS)N)C2=CC=CC=C2
How it was run: as §1

alisertib = compound: COc1cc(Nc2ncc3c(n2)-c2ccc(Cl)cc2C(c2c(F)cccc2OC)=NC3)ccc1C(=O)O [alisertib]
How it was run: as §1

[9] = compound: COc1cc2nc(-c3cc(F)ccc3O)nc(N[C@@H]3CNC[C@H]3C(C)(C)O)c2cc1OC
How it was run: as §1

gefitinib = compound: COc1cc2ncnc(Nc3ccc(F)c(Cl)c3)c2cc1OCCCN1CCOCC1 [gefitinib]
How it was run: as §1

| Target | log2 fold change (vemurafenib) | log2 fold change [1] | log2 fold change (barasertib) | log2 fold change [2] | log2 fold change (volasertib) | log2 fold change [3] | log2 fold change [4] | log2 fold change [5] | log2 fold change (saracatinib) | log2 fold change (sotrastaurin) | log2 fold change (alvocidib) | log2 fold change (Tubastatin A) | log2 fold change [6] | log2 fold change (defactinib) | log2 fold change [7] | log2 fold change (encorafenib) | log2 fold change [8] | log2 fold change (alisertib) | log2 fold change [9] | log2 fold change (gefitinib) |
| --- | --- | --- | --- | --- | --- | --- | --- | --- | --- | --- | --- | --- | --- | --- | --- | --- | --- | --- | --- | --- |
| NAT10 (UniProt Q9H0A0) | inactive: 0.03 | inactive: 0.01 | inactive: -0.024 | inactive: -0.019 | inactive: -0.02 | inactive: -0.012 | inactive: 0.01 | inactive: -0.036 | inactive: -0.005 | inactive: 0.036 | inactive: 0.003 | inactive: -0.033 | inactive: -0.015 | inactive: -0.027 | inactive: 0.016 | inactive: 0.012 | inactive: 0.031 | inactive: 0.032 | inactive: -0.007 | inactive: -0.017 |
| NAGLU (UniProt P54802) | inactive: 0.048 | inactive: 0.012 | inactive: -0.015 | inactive: 0.031 | inactive: -0.085 | inactive: -0.007 | inactive: 0.025 | inactive: 0.001 | inactive: 0.06 | inactive: -0.051 | inactive: 0.059 | inactive: -0.011 | inactive: 0.018 | inactive: -0.018 | inactive: 0.058 | inactive: -0.059 | inactive: -0.022 | inactive: -0.032 | inactive: 0.061 | inactive: 0.078 |
| NCEH1 (UniProt Q6PIU2) | inactive: 0.017 | inactive: 0.049 | inactive: -0.012 | inactive: 0.043 | inactive: 0.019 | inactive: -0.021 | inactive: 0.025 | inactive: -0.012 | inactive: 0.133 | inactive: 0.065 | inactive: -0.027 | inactive: 0.007 | inactive: 0.017 | inactive: 0.016 | inactive: -0.035 | inactive: 0.047 | inactive: -0.036 | inactive: -0.077 | inactive: 0 | inactive: 0.016 |
| NCAPG2 (UniProt Q86XI2) | inactive: 0.015 | inactive: 0.044 | inactive: 0.016 | inactive: -0.055 | inactive: -0.006 | inactive: 0.025 | inactive: -0.139 | inactive: 0.074 | inactive: 0.027 | inactive: 0.027 | inactive: -0.014 | inactive: -0.217 | inactive: -0.008 | inactive: 0.023 | inactive: 0.04 | inactive: 0.002 | inactive: -0.018 | inactive: 0.004 | inactive: -0.01 | inactive: 0.038 |
| NANS (UniProt Q9NR45) | inactive: -0.038 | inactive: 0.007 | inactive: -0.046 | inactive: -0.004 | inactive: -0.016 | inactive: -0.001 | inactive: -0.034 | inactive: 0.027 | inactive: -0.018 | inactive: -0.057 | inactive: -0.008 | inactive: -0.024 | inactive: -0.009 | inactive: -0.011 | inactive: -0.037 | inactive: 0.004 | inactive: -0.03 | inactive: 0.032 | inactive: 0 | inactive: -0.024 |
| NAGK isoform 2 (UniProt Q9UJ70) | inactive: 0.004 | inactive: 0.004 | inactive: -0.059 | inactive: 0.079 | inactive: 0.037 | inactive: 0.023 | inactive: -0.108 | inactive: 0.067 | inactive: 0.014 | inactive: 0.016 | inactive: -0.016 | inactive: 0.016 | inactive: 0.043 | inactive: -0.03 | inactive: 0.012 | inactive: 0.005 | inactive: -0.032 | inactive: -0.066 | inactive: -0.04 | inactive: 0.018 |
| NCKAP1 isoform 2 (UniProt Q9Y2A7) | inactive: -0.014 | inactive: 0 | inactive: -0.007 | inactive: -0.011 | inactive: -0.028 | inactive: 0.021 | inactive: 0.029 | inactive: -0.016 | inactive: -0.008 | inactive: 0.01 | inactive: -0.011 | inactive: 0.025 | inactive: 0.017 | inactive: -0.011 | inactive: -0.031 | inactive: 0.005 | inactive: -0.042 | inactive: -0.015 | inactive: 0.002 | inactive: 0.002 |
| NCBP2AS2 (UniProt Q69YL0) | inactive: -0.047 | inactive: 0.108 | inactive: 0.028 | inactive: -0.005 | inactive: -0.002 | inactive: -0.064 | inactive: 0.035 | inactive: -0.311 | inactive: 0.103 | inactive: 0 | inactive: 0.054 | inactive: 0.178 | inactive: -0.059 | inactive: -0.125 | inactive: -0.093 | inactive: 0.003 | inactive: 0.201 | inactive: 0.06 | inactive: -0.241 | inactive: -0.084 |
| MVD (UniProt P53602) | inactive: 0.006 | inactive: -0.005 | inactive: 0 | inactive: 0.008 | inactive: -0.022 | inactive: -0.004 | inactive: 0.005 | inactive: -0.008 | inactive: -0.014 | inactive: -0.014 | inactive: 0.033 | inactive: -0.03 | inactive: -0.032 | inactive: -0.012 | inactive: 0.03 | inactive: -0.004 | inactive: 0.048 | inactive: -0.006 | inactive: -0.01 | inactive: 0.001 |
| NCOA3 (UniProt Q9Y6Q9) | inactive: 0.005 | inactive: -0.006 | inactive: 0.004 | inactive: 0.116 | inactive: -0.007 | inactive: -0.005 | inactive: 0.058 | inactive: 0.037 | inactive: 0.007 | inactive: 0.022 | inactive: 0.009 | inactive: 0.016 | inactive: 0.003 | inactive: 0.002 | inactive: 0.025 | inactive: 0.079 | inactive: -0.026 | inactive: 0 | inactive: -0.016 | inactive: 0.077 |
| NABP2 (UniProt Q9BQ15) | inactive: 0.026 | inactive: 0.064 | inactive: -0.058 | inactive: -0.009 | inactive: 0.001 | inactive: -0.042 | inactive: 0.122 | inactive: -0.036 | inactive: -0.041 | inactive: -0.008 | inactive: 0.003 | inactive: 0.004 | inactive: 0.036 | inactive: -0.065 | inactive: -0.11 | inactive: -0.022 | inactive: -0.093 | inactive: 0.02 | inactive: 0.004 | inactive: -0.017 |
| NAP1L4 isoform 2 (UniProt Q99733) | inactive: -0.02 | inactive: 0 | inactive: -0.032 | inactive: 0.001 | inactive: 0.003 | inactive: 0.024 | inactive: 0.052 | inactive: -0.021 | inactive: 0.011 | inactive: 0.007 | inactive: 0.014 | inactive: 0.004 | inactive: -0.011 | inactive: 0.034 | inactive: 0.003 | inactive: -0.014 | inactive: 0.001 | inactive: -0.005 | inactive: -0.015 | inactive: 0.006 |
| MYO1D (UniProt O94832) | inactive: 0.073 | inactive: 0.018 | inactive: 0.05 | inactive: 0.006 | inactive: -0.003 | inactive: -0.002 | inactive: -0.05 | inactive: -0.035 | inactive: -0.001 | inactive: 0.041 | inactive: 0.026 | inactive: -0.091 | inactive: -0.006 | inactive: 0.048 | inactive: -0.008 | inactive: 0.058 | inactive: -0.012 | inactive: -0.019 | inactive: 0.012 | inactive: -0.016 |
| NAP1L5 (UniProt Q96NT1) | inactive: -0.094 | inactive: 0.005 | inactive: 0.037 | inactive: 0.181 | inactive: -0.033 | inactive: 0.052 | active: 0.62 | inactive: -0.205 | inactive: -0.15 | inactive: 0.08 | inactive: 0.161 | inactive: -0.039 | inactive: 0.008 | inactive: -0.032 | inactive: -0.082 | inactive: 0.01 | inactive: -0.047 | inactive: 0.021 | inactive: -0.039 | inactive: 0.02 |
| NACA (UniProt E9PAV3) | inactive: -0.005 | inactive: -0.013 | inactive: -0.056 | inactive: 0.039 | inactive: 0.017 | inactive: -0.023 | inactive: -0.187 | inactive: 0.083 | inactive: -0.01 | inactive: 0.032 | inactive: -0.054 | inactive: 0.045 | inactive: -0.006 | inactive: 0.015 | inactive: 0.038 | inactive: 0.012 | inactive: -0.029 | inactive: 0 | inactive: 0.011 | inactive: -0.007 |
| NBEAL2 (UniProt Q6ZNJ1) | inactive: -0.047 | inactive: 0.021 | inactive: 0.045 | inactive: -0.053 | inactive: -0.128 | inactive: 0.01 | inactive: 0.013 | inactive: -0.037 | inactive: 0.013 | inactive: 0 | inactive: 0.031 | inactive: -0.141 | inactive: -0.005 | inactive: 0.022 | inactive: 0.033 | inactive: 0.003 | inactive: -0.029 | inactive: -0.053 | inactive: -0.009 | inactive: 0.01 |
